Assay results taken from the supplement of paper PMC8728848.
This is one part of the list.

How the values were obtained:
Assay in all cases: glycan array binding signal (z-score within array); higher = stronger binding
Conditions in all cases: glycan notation: IUPAC condensed, linker removed
[1] = target: GlcNAc(b1-3)Gal(b1-4)GlcNAc(b1-3)Gal(b1-4)GlcNAc(b1-3)Gal(b1-4)GlcNAc(b1-3)Gal(b1-4)GlcNAc(b1-2)[GlcNAc(b1-3)Gal(b1-4)GlcNAc(b1-3)Gal(b1-4)GlcNAc(b1-3)Gal(b1-4)GlcNAc(b1-3)Gal(b1-4)GlcNAc(b1-6)]Man(a1-6)[GlcNAc(b1-3)Gal(b1-4)GlcNAc(b1-3)Gal(b1-4)GlcNAc(b1-3)Gal(b1-4)GlcNAc(b1-3)Gal(b1-4)GlcNAc(b1-2)Man(a1-3)]Man(b1-4)GlcNAc(b1-4)[Fuc(a1-6)]GlcNAc
Procedure, shortened: (§1)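 Glycan array binding is given as a within-array Z-score, which can be read as non-binding when negative. The arrays, 3228 of them, came from the Consortium for Functional Glycomics database and were retained only where the protein sequence was available. Z-scores were averaged across arrays of the same protein sequence at different concentrations or buffers and across linkers.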

[2] = target: GlcNAc(b1-3)Gal(b1-4)GlcNAc(b1-3)Gal(b1-4)GlcNAc(b1-3)GalNAc
Procedure, shortened: as §1

[3] = target: GlcNAc(b1-3)Gal(b1-4)GlcNAc(b1-3)GalNAc
Procedure, shortened: as §1

[4] = target: GlcNAc(b1-3)Gal(b1-4)GlcNAc(b1-3)[GlcNAc(b1-3)Gal(b1-4)GlcNAc(b1-3)]GalNAc
Procedure, shortened: as §1

[5] = target: GlcNAc(b1-3)Gal(b1-4)GlcNAc(b1-6)[Gal(b1-3)]GalNAc
Procedure, shortened: as §1

[6] = target: GlcNAc(b1-3)Gal(b1-4)GlcNAc(b1-6)[GlcNAc(b1-3)Gal(b1-3)]GalNAc
Procedure, shortened: as §1

[7] = target: GlcNAc(b1-3)Gal(b1-4)GlcNAc(b1-6)[GlcNAc(b1-3)]Gal(b1-4)GlcNAc
Procedure, shortened: as §1

GlcNAc(b1-3)GalNAc = target: GlcNAc(b1-3)GalNAc
Procedure, shortened: as §1

GlcNAc(b1-3)Man = target: GlcNAc(b1-3)Man
Procedure, shortened: as §1

[8] = target: GlcNAc(b1-3)[GlcNAc(b1-4)][GlcNAc(b1-6)]GlcNAc
Procedure, shortened: as §1

[9] = target: GlcNAc(b1-3)[GlcNAc(b1-6)]Gal(b1-4)GlcNAc
Procedure, shortened: as §1

[10] = target: GlcNAc(b1-3)[GlcNAc(b1-6)]GalNAc
Procedure, shortened: as §1

[11] = target: GlcNAc(b1-4)Gal(b1-4)GlcNAc
Procedure, shortened: as §1

GlcNAc(b1-4)GlcNAc = target: GlcNAc(b1-4)GlcNAc
Procedure, shortened: as §1

[12] = target: GlcNAc(b1-4)GlcNAc(b1-4)GlcNAc
Procedure, shortened: as §1

[13] = target: GlcNAc(b1-4)GlcNAc(b1-4)GlcNAc(b1-4)GlcNAc(b1-4)GlcNAc
Procedure, shortened: as §1

[14] = target: GlcNAc(b1-4)GlcNAc(b1-4)GlcNAc(b1-4)GlcNAc(b1-4)GlcNAc(b1-4)GlcNAc
Procedure, shortened: as §1

[15] = target: GlcNAc(b1-4)[GlcNAc(b1-6)]GalNAc
Procedure, shortened: as §1

[16] = target: GlcNAc(b1-6)Gal(b1-4)GlcNAc
Procedure, shortened: as §1

GlcNAc(b1-6)GalNAc = target: GlcNAc(b1-6)GalNAc
Procedure, shortened: as §1

[17] = target: GlcNAc6S(b1-3)Gal(b1-4)GlcNAc
Procedure, shortened: as §1

Kdn(a2-3)Gal(b1-3)GalNAc = target: Kdn(a2-3)Gal(b1-3)GalNAc
Procedure, shortened: as §1

Kdn(a2-3)Gal(b1-3)GlcNAc = target: Kdn(a2-3)Gal(b1-3)GlcNAc
Procedure, shortened: as §1

Kdn(a2-3)Gal(b1-4)Glc = target: Kdn(a2-3)Gal(b1-4)Glc
Procedure, shortened: as §1

Kdn(a2-3)Gal(b1-4)GlcNAc = target: Kdn(a2-3)Gal(b1-4)GlcNAc
Procedure, shortened: as §1

[18] = target: Kdn(a2-3)Gal(b1-4)[Fuc(a1-3)]GlcNAc
Procedure, shortened: as §1

Kdn(a2-6)Gal(b1-4)GlcNAc = target: Kdn(a2-6)Gal(b1-4)GlcNAc
Procedure, shortened: as §1

[19] = target: Man(a1-2)Man(a1-2)Man(a1-3)Man
Procedure, shortened: as §1

[20] = target: Man(a1-2)Man(a1-2)Man(a1-6)[Man(a1-3)]Man
Procedure, shortened: as §1

Man(a1-2)Man(a1-3)Man = target: Man(a1-2)Man(a1-3)Man
Procedure, shortened: as §1

[21] = target: Man(a1-2)Man(a1-3)[Man(a1-2)Man(a1-6)]Man
Procedure, shortened: as §1

[22] = target: Man(a1-2)Man(a1-3)[Man(a1-2)Man(a1-6)]Man(a1-6)[Man(a1-2)Man(a1-2)Man(a1-3)]Man
Procedure, shortened: as §1

[23] = target: Man(a1-2)Man(a1-3)[Man(a1-2)Man(a1-6)]Man(a1-6)[Man(a1-2)Man(a1-2)Man(a1-3)]Man(b1-4)GlcNAc(b1-4)GlcNAc
Procedure, shortened: as §1

[24] = target: Man(a1-2)Man(a1-3)[Man(a1-6)]Man(a1-6)[Man(a1-2)Man(a1-3)]Man(b1-4)GlcNAc(b1-4)GlcNAc
Procedure, shortened: as §1

[25] = target: Man(a1-2)Man(a1-6)[Man(a1-3)]Man(a1-6)[Man(a1-2)Man(a1-2)Man(a1-3)]Man
Procedure, shortened: as §1

[26] = target: Man(a1-2)Man(a1-6)[Man(a1-3)]Man(a1-6)[Man(a1-2)Man(a1-2)Man(a1-3)]Man(b1-4)GlcNAc(b1-4)GlcNAc
Procedure, shortened: as §1

Man(a1-3)[Man(a1-6)]Man = target: Man(a1-3)[Man(a1-6)]Man
Procedure, shortened: as §1

B1: AT5G17240(42) (Arabidopsis thaliana), Q6NQJ8 (protein)
chain: MDLEHQTMETFLRWAAEIGISDSIDSSRFRDSCLGHSLSVSDFPDAGGRGLGAARELKKGELVLKVPRKALMTTESIIAKDLKLSDAVNLHNSLSSTQILSVCLLYEMSKEKKSFWYPYLFHIPRDYDLLATFGNFEKQALQVEDAVWATEKATAKCQSEWKEAGSLMKELELKPKFRSFQAWLWASATISSRTLHVPWDSAGCLCPVGDLFNYDAPGDYSNTPQGPESANNVEEAGLVVETHSERLTDGGFEEDVNAYCLYARRNYQLGEQVLLCYGTYTNLELLEHYGFMLEENSNDKVFIPLETSLFSLASSWPKDSLYIHQDGKLSFALISTLRLWLIPQSQRDKSVMRLVYAGSQISVKNEILVMKWMSEKCGSVLRDLPTSVTEDTVLLHNIDKLQDPELRLEQKETEAFGSEVRAFLDANCLWDVTVLSGKPIEFSRKTSRMLSKWRWSVQWRLSYKRTLADCISYCNEKMNNLLGTQDRLRDL
- glycan array binding signal (z-score) [1]: 1.33
- glycan array binding signal (z-score) [2]: -0.468
- glycan array binding signal (z-score) [3]: -0.44
- glycan array binding signal (z-score) [4]: -0.215
- glycan array binding signal (z-score) [5]: -0.992
- glycan array binding signal (z-score) [6]: -0.048
- glycan array binding signal (z-score) [7]: 0.17
- glycan array binding signal (z-score) (GlcNAc(b1-3)GalNAc): 0.283
- glycan array binding signal (z-score) (GlcNAc(b1-3)Man): -0.137
- glycan array binding signal (z-score) [8]: -0.488
- glycan array binding signal (z-score) [9]: 0.895
- glycan array binding signal (z-score) [10]: -0.006
- glycan array binding signal (z-score) [11]: -0.713
- glycan array binding signal (z-score) (GlcNAc(b1-4)GlcNAc): 0.279
- glycan array binding signal (z-score) [12]: -0.495
- glycan array binding signal (z-score) [13]: -0.309
- glycan array binding signal (z-score) [14]: 0.194
- glycan array binding signal (z-score) [15]: 0.61
- glycan array binding signal (z-score) [16]: 1.88
- glycan array binding signal (z-score) (GlcNAc(b1-6)GalNAc): -0.686
- glycan array binding signal (z-score) [17]: -0.23
- glycan array binding signal (z-score) (Kdn(a2-3)Gal(b1-3)GalNAc): -0.096
- glycan array binding signal (z-score) (Kdn(a2-3)Gal(b1-3)GlcNAc): -0.107
- glycan array binding signal (z-score) (Kdn(a2-3)Gal(b1-4)Glc): -0.131
- glycan array binding signal (z-score) (Kdn(a2-3)Gal(b1-4)GlcNAc): 0.637
- glycan array binding signal (z-score) [18]: -0.336
- glycan array binding signal (z-score) (Kdn(a2-6)Gal(b1-4)GlcNAc): -0.164
- glycan array binding signal (z-score) [19]: -0.07
- glycan array binding signal (z-score) [20]: -0.6
- glycan array binding signal (z-score) (Man(a1-2)Man(a1-3)Man): -0.342
- glycan array binding signal (z-score) [21]: 0.048
- glycan array binding signal (z-score) [22]: 0.216
- glycan array binding signal (z-score) [23]: -0.081
- glycan array binding signal (z-score) [24]: 0.607
- glycan array binding signal (z-score) [25]: -0.712
- glycan array binding signal (z-score) [26]: -0.172
- glycan array binding signal (z-score) (Man(a1-3)[Man(a1-6)]Man): 0.356
